# Out of some 320,000 compounds screened, about 22,000 (6.9%) were called active. The shares of active, inactive and inconclusive entries below differ from those in the screen. Calls follow the shape of the dose curve; as a rule, active = well fitted inhibition curve with a large enough effect; inconclusive = small, poorly fitted or top-dose-only effect, or another doubt; inactive = no such curve, though single readings can be large or run the other way. Potencies of inconclusive entries are doubtful fits and often do not repeat. *1 amine or outer side, *2 acyl side, *3 side chain or, on linkers, in order; H or OH if unused. Where a SMILES comes first, the peptide text is derived from it. [ ]: non-standard residue; d: D form. ξ: configuration not given here. ξR = N=C(N)NCCCC(N)C(=O)O; ξF = NC(Cc1ccccc1)C(=O)O; CO = O=C([*:1])[*:2]
# Assay: Primary qHTS for delayed death inhibitors of the malarial parasite plastid, 96 hour incubation
# Details: P. falciparum luciferase reporter growth; series mostly up to 28.7 µM; activity change, negative = inhibition: at the top concentration
# Procedure, shortened: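 Cell-based qHTS: luciferase-tagged P. falciparum in erythrocytes (2% hematocrit, 0.05% parasitemia final) incubated with compounds for 96 hours, 37 C, 5% CO2; luciferase detection reagent then added and luminescence measured.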
# % is scaled to controls: 0 for no effect and ±100 for the full control effect; potency is read from the fitted curve at half-maximal effect.
SMILES,Potency,"activity change, negative = inhibition"
NCCCNC(=O)Cn1c(=O)c2c3c(sc2n(Cc2ccccc2)c1=O)CCCC3,"inconclusive: 0.0029 µM [inhibitor, full curve, poor fit]",
O=C(NC1=NCCS1)c1ccc(Cl)c(S(=O)(=O)N2CCc3ccccc32)c1,"inconclusive: 5.86 µM [inhibitor, partial curve]",
CC1=C(C(=O)OCCNC(=O)c2cccnc2)C(c2cccc([N+](=O)[O-])c2)C(C(=O)OCCN(C)C)=C(C)N1 (stereo not given),"inconclusive: 5.86 µM [inhibitor, partial curve]",
CCOc1cc(NC(=S)NCc2ccco2)c(OCC)cc1NC(C)=O,"inconclusive: 18.5 µM [inhibitor, partial curve, poor fit]",
Cc1cc(NS(=O)(=O)c2ccc(NC(=O)/C=C/c3ccc(Br)cc3)cc2)no1,,inactive: -31.8%
CCCCC1CCC(c2nc(-c3ccccn3)no2)CC1 (stereo not given),"inconclusive: 0.037 µM [inhibitor, full curve, poor fit]",
CCOc1ccc(-n2c(C)cc(/C=N\NC(=O)CC(=O)NC3CCCCC3)c2C)cc1,,inactive: -1.95%
CN1CCN(C(=O)CCN2C(=O)/C(=C\c3ccc(Cl)cc3)SC2=S)CC1,active: 8.28 µM,
CN1CCN(c2ccc(S(=O)(=O)N3CCCCC3)cc2NC(=O)c2ccc3ccccc3c2)CC1,active: 9.28 µM,
O=c1cc[nH]c2ccc(OC(F)(F)F)cc12,"inconclusive: 18.5 µM [inhibitor, single point]",
COC(=O)c1ccc2c(c1)N(C)CCS2,"inconclusive: 1.47 µM [inhibitor, partial curve, poor fit]",
Cc1nc2ccccc2n1CCOc1ccccc1,,inactive: -25.9%
CCOc1ccc2nc(C)cc(Nc3ccc4c(c3)OCCO4)c2c1,active: 2.62 µM,
O=c1c(C=NCc2cccs2)c(O)n(C2CCCCC2)c(=O)n1C1CCCCC1,"inconclusive: 5.22 µM [inhibitor, partial curve, poor fit]",
CCCCC(CC)CNC(=O)c1cccs1 (stereo not given),active: 4.65 µM,
Cn1cc(C(=O)N2CCN(c3ccccc3)CC2)c(=O)c2cc(S(=O)(=O)N3CCOCC3)ccc21,"inconclusive: 18.5 µM [inhibitor, single point]",
CSc1ccc(CN2CCN(C(=O)c3ccncc3)CC2)cc1,"inconclusive: 4.65 µM [inhibitor, partial curve]",
N#CC1=C(N)N2C(=C(C#N)C13CCCCC3)SC1CCCCC12O (stereo not given),"inconclusive: 13.1 µM [inhibitor, single point]",
COc1cccc(CCNC(=O)CCc2nnc(-c3ccc4c(c3)OCO4)o2)c1,,inactive: -6.29%
CC(=O)NC1CC2CCCC(C1)N2CC(=O)Nc1ccccc1 (stereo not given),"inconclusive: 4.15 µM [inhibitor, single point]",
Cc1cc(N2CCCCC2)n2nc(C)c(-c3ccccc3)c2n1,"inconclusive: 18.5 µM [inhibitor, single point]",
CCn1c(Cn2nnc(-c3ccccc3)n2)nnc1SCC(=O)Nc1cccc(C(C)=O)c1,,inactive: -5.47%
CC(=O)c1cccc(S(=O)(=O)N2CCCC(c3nc4c(nnn4Cc4ccccc4Cl)c(=O)[nH]3)C2)c1 (stereo not given),,inactive: 1.39%
O=C(Nc1ccc2nc3ccccc3nc2c1)c1ccccc1,,inactive: -1.92%

SMILES,Potency,"activity change, negative = inhibition"
Cc1cc(C)c(S(=O)(=O)NCC23C=CC(O2)C2C(=O)N(c4ccccc4)C(=O)C23)c(C)c1 (stereo not given),,inactive: 53%
CC(Oc1ccc(S(=O)(=O)N2CCCC2)cc1[N+](=O)[O-])C(=O)NC(C)c1ccccc1 (stereo not given),"inconclusive: 18.5 µM [inhibitor, single point]",
COc1ccc(/C(C)=N\Nc2nc(-c3ccc(Cl)cc3)cc(C(F)(F)F)n2)cc1OC,"inconclusive: 11.7 µM [inhibitor, single point]",
O=S(=O)(O)c1cccc2c(N=Nc3ccc(O)c4ncccc34)cccc12,,inactive: -16.9%
S=c1[nH]nc(-c2ccco2)n1/N=C/c1ccccn1,"inconclusive: 18.5 µM [inhibitor, single point]",
NC(=O)C1CCN(CCC(=O)Nc2ccc(F)c(F)c2)CC1,"inconclusive: 7.38 µM [inhibitor, partial curve, poor fit]",
COc1ccc(C2CC(=O)Oc3cc(O)cc(O)c32)cc1 (stereo not given),"inconclusive: 10.4 µM [inhibitor, single point]",
CCOc1ccc(NC(=O)CN(C)C(=O)c2ccccc2OCCOc2ccccc2)cc1OCC,"inconclusive: 5.22 µM [inhibitor, single point]",
CCOc1ccc(CNC(=O)CCn2c(=O)oc3ccccc32)cc1OC,active: 9.28 µM,
COc1ccc(CNC(=O)COC(=O)CC(NC(N)=O)c2ccc(Cl)cc2)cc1OC (stereo not given),,inactive: 14.8%
COc1ccc(NC(=O)NCc2cccnc2)cc1,"inconclusive: 18.5 µM [inhibitor, single point]",
CCCn1c(SCC(=O)C(C)(C)C)nc2ccccc21,,inactive: 7.67%
COc1ccc(NC(=O)CSc2nnc(-c3ccncc3)o2)c([N+](=O)[O-])c1,"inconclusive: 18.5 µM [inhibitor, single point]",
CN(C)c1ccc(NC(=O)CN2CCN(CC(=O)Nc3ccc(F)cc3)CC2)cc1,,inactive: 0.935%
COc1ccccc1CNc1nc2ccccc2n1CCN1CCCCC1,"inconclusive: 2.33 µM [inhibitor, full curve]",
CCOC(=O)C(=CNc1ccc2c(c1)nnn2-c1ccc(Cl)cc1)C(=O)OCC,"inconclusive: 18.5 µM [inhibitor, single point]",
CCc1cc(=O)[nH]c(SCCC(F)=C(F)F)n1,,inactive: 4.98%
CCCOc1c(Br)cc(C2C3=C(CCCC3=O)N(C)C3=C2C(=O)CCC3)cc1OC,,inactive: -17.7%
Cc1cc(CNC(=O)C2CCC(=O)N(CCc3cccc(F)c3)C2)nn1C (stereo not given),"inconclusive: 13.1 µM [inhibitor, single point]",
Cc1c(CC(=O)N2CCC(C(N)=O)CC2)c(=O)oc2cc3c(cc12)CCC1(CCCCC1)O3,,inactive: 29.3%
COc1ccccc1-c1noc2ncnc(Nc3ccc4c(c3)OCO4)c12,"inconclusive: 18.5 µM [inhibitor, single point]",
CCOc1cccc(C(=O)Nc2ccccc2C(=O)N2CCN(C)CC2)c1,active: 4.65 µM,
CSc1ccccc1NC(=S)NCc1ccc(Cl)cc1,"inconclusive: 14.7 µM [inhibitor, partial curve]",
NC(=O)c1ccsc1NC(=O)COC(=O)c1ccccc1NCc1ccco1,"inconclusive: 13.1 µM [inhibitor, single point]",

# 4 compounds already listed, arranged by count of non-hydrogen atoms, ascending:
SMILES,Potency,"activity change, negative = inhibition"
S=c1[nH]nc(-c2ccco2)n1/N=C/c1ccccn1,"inconclusive: 18.5 µM [inhibitor, single point]",
COc1ccc(C2CC(=O)Oc3cc(O)cc(O)c32)cc1 (stereo not given),"inconclusive: 10.4 µM [inhibitor, single point]",
CCOc1cccc(C(=O)Nc2ccccc2C(=O)N2CCN(C)CC2)c1,active: 4.65 µM,
NC(=O)c1ccsc1NC(=O)COC(=O)c1ccccc1NCc1ccco1,"inconclusive: 13.1 µM [inhibitor, single point]",

# The listing continues:

SMILES,Potency,"activity change, negative = inhibition"
COc1ccc(N2CCn3c2nc2c3c(=O)n(CCCc3ccccc3)c(=O)n2C)c(OC)c1,"inconclusive: 18.5 µM [inhibitor, single point]",
COc1cc2c(cc1NC(=O)Nc1ccc(F)cc1)oc1ccccc12,"inconclusive: 10.4 µM [inhibitor, partial curve, poor fit]",
CCOC(=O)N1CCN(C(=O)c2ccc(NS(=O)(=O)c3ccc(F)cc3)cc2)CC1,"inconclusive: 13.1 µM [inhibitor, single point]",
O=[N+]([O-])c1ccc2c(c1)S(=O)c1ccccc1-2 (stereo not given),"inconclusive: 11.7 µM [inhibitor, single point]",
CCC(O)c1ccccc1 (stereo not given),,inactive: -9.64%
O=c1[nH]c(C2CCCN(S(=O)(=O)c3ccccc3)C2)nc2c1nnn2Cc1ccccc1F (stereo not given),,inactive: 10.2%
O=S(=O)(c1ccc(-c2csc(Nc3ccc(Br)cc3)n2)cc1)N1CCCC1,"inconclusive: 18.5 µM [inhibitor, single point]",
Cc1cc(C)nc(/N=C(\N)N2CCc3ccccc32)n1,"inconclusive: 18.5 µM [inhibitor, single point]",
CC(C)[C@H](NC(=O)[C@H](CCCN=C(N)N)NC(=O)NC(Cc1ccccc1)C(=O)O)C(=O)NC(C=O)CCCN=C(N)N (stereo partly drawn) ({ξF-CO}-Arg-Val-[ξR]-aldehyde),"inconclusive: 9.28 µM [inhibitor, partial curve, poor fit]",
CN(C)CCCN(C(=O)c1ccc(S(=O)(=O)N(C)C)cc1)c1nc2cc3c(cc2s1)OCO3,,inactive: 17.9%
COc1ccc(CNS(=O)(=O)c2ccc3c(c2)CCN3C(=O)C2CCC2)cc1,,inactive: -8.7%
Nc1nonc1NN=C1CCCCC1,,inactive: 14%
COc1ccc(-c2noc(CCCC(=O)NCCc3ccccc3)n2)cc1OC,"inconclusive: 11.7 µM [inhibitor, partial curve]",
CCCCn1c(=O)c(C(=O)NCc2ccccc2Cl)c(O)c2ccccc21,"inconclusive: 3.7 µM [inhibitor, full curve]",
Cc1cc(-c2nnc(SCC(=O)Nc3cccc(C)c3C)n2N)n[nH]1,"inconclusive: 16.5 µM [inhibitor, partial curve, poor fit]",
O=C(CC1NCCC[C@H]1O)Cn1cnc2cc(Br)c(Cl)cc2c1=O (stereo not given in full),"inconclusive: 0.757 µM [inhibitor, full curve, poor fit]",
CCN1C(=O)C(CC(=O)N2CCN(C(c3ccccc3)c3ccccc3)CC2)N(CC)C1=O (stereo not given),"inconclusive: 16.5 µM [inhibitor, single point]",
CC(=O)c1cccc(NC(=O)N2C3CCC2CC(NC(=O)C2CC2)C3)c1 (stereo not given),"inconclusive: 18.5 µM [inhibitor, single point]",
CN(CC(=O)NCc1ccc(Cl)cc1)S(=O)(=O)c1cccc2nsnc12,"inconclusive: 0.0029 µM [inhibitor, full curve, poor fit]",
CCCC(=O)Nc1cc(C)c(NC(=O)c2cccs2)cn1,,inactive: -9.8%
Cc1cccc(C(=O)Nc2cc(OCc3cccc(F)c3)c(Cl)cc2Cl)c1,,inactive: -0.774%
CCCCN(CC(=O)NC1CC1)S(=O)(=O)c1ccc(OCC)cc1,"inconclusive: 18.5 µM [inhibitor, single point]",

# Another view of 2 compounds above.
SMILES | Potency | activity change, negative = inhibition
CN(C)c1ccc(NC(=O)CN2CCN(CC(=O)Nc3ccc(F)cc3)CC2)cc1 |  | inactive: 0.935%
COc1ccccc1CNc1nc2ccccc2n1CCN1CCCCC1 | inconclusive: 2.33 µM [inhibitor, full curve] | 
